PubChem BioAssay AID1671195 – Yale University | 2021
In all, the deposit lists about 22,000 reagents; shown is a random part of them. Of all reagents, about 1,510 (6.9%) were called active. 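Active includes knockdowns raising or lowering LDL uptake; positive z-scores mean more uptake, negative mean less.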 A number with no mark means an inactive call.

Assay: 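Knockdowns that increase or decrease uptake of fluorescent LDL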 (primary screen)
System: human Huh7 hepatoma cells
Knock-down reagent: siRNA pool against human genes, 18 nM
Duration: about 2 to 2.5 days of knockdown, then 8 h LDL uptake
Conditions: DiI-labelled LDL at 30 µg/ml for 8 h, in lipoprotein-deficient serum medium
Measured: 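Per-cell DiI-LDL intensity by automated imaging; well means scaled to the plate median and given as a robust z-score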
Reading the numbers: robust z-score: higher = more LDL uptake after knockdown
Active means: 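Active when two or more replicates show a robust z-score above 2 or below -2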

CPEB2
- robust z-score, replicate 1: -0.552
- robust z-score, replicate 2: -0.946
- robust z-score, replicate 3: -0.564

H3C7
- robust z-score, replicate 1: 0.682
- robust z-score, replicate 2: -0.558
- robust z-score, replicate 3: 0.271

CCDC3
- robust z-score, replicate 1: -0.747
- robust z-score, replicate 2: -0.662
- robust z-score, replicate 3: -0.921

GADD45GIP1
- robust z-score, replicate 1: 0.501
- robust z-score, replicate 2: 1.01
- robust z-score, replicate 3: 0.821

GMPR2
- robust z-score, replicate 1: 0.0364
- robust z-score, replicate 2: 1.18
- robust z-score, replicate 3: 0.447

LOC113386 (retired record)
- robust z-score, replicate 1: -0.751
- robust z-score, replicate 2: 0.236
- robust z-score, replicate 3: -0.405

NKTR
- robust z-score, replicate 1: 0.689
- robust z-score, replicate 2: -0.2
- robust z-score, replicate 3: 1.23

MAN1B1
- robust z-score, replicate 1: 0.47
- robust z-score, replicate 2: -0.357
- robust z-score, replicate 3: -1.33

GPR139
- robust z-score, replicate 1: -0.523
- robust z-score, replicate 2: 0.0688
- robust z-score, replicate 3: -0.515

DCAF11
- robust z-score, replicate 1: 0.421
- robust z-score, replicate 2: 0.419
- robust z-score, replicate 3: -0.0143

MLF1
- robust z-score, replicate 1: 1.51
- robust z-score, replicate 2: -0.636
- robust z-score, replicate 3: -0.0528

HMGB3
- robust z-score, replicate 1: -0.8
- robust z-score, replicate 2: -1.02
- robust z-score, replicate 3: -1.25

ABCC6
- robust z-score, replicate 1: -1.14
- robust z-score, replicate 2: -1.25
- robust z-score, replicate 3: -1.38

ZDHHC7
- robust z-score, replicate 1: 1.19
- robust z-score, replicate 2: -0.0757
- robust z-score, replicate 3: 1.98

CCDC25
- robust z-score, replicate 1: 1.2
- robust z-score, replicate 2: -0.133
- robust z-score, replicate 3: -1

RAB21
- robust z-score, replicate 1: -0.331
- robust z-score, replicate 2: -1.73
- robust z-score, replicate 3: -1.51

GSK3B
- robust z-score, replicate 1: -0.18
- robust z-score, replicate 2: 0.681
- robust z-score, replicate 3: 0.968

PRXL2A
- robust z-score, replicate 1: -0.18
- robust z-score, replicate 2: -0.0449
- robust z-score, replicate 3: -0.242

DDX56
- robust z-score, replicate 1: -1.74
- robust z-score, replicate 2: -0.593
- robust z-score, replicate 3: -0.123

NUB1
- robust z-score, replicate 1: -0.555
- robust z-score, replicate 2: -0.772
- robust z-score, replicate 3: 0.187

ABCA13
- robust z-score, replicate 1: -0.81
- robust z-score, replicate 2: -0.294
- robust z-score, replicate 3: -1.08

MZT2B
- robust z-score, replicate 1: 0.209
- robust z-score, replicate 2: 0.424
- robust z-score, replicate 3: 0.873

NOM1
- robust z-score, replicate 1: -0.63
- robust z-score, replicate 2: -1.26
- robust z-score, replicate 3: -0.382

VASH2
- robust z-score, replicate 1: -1.13
- robust z-score, replicate 2: -1.09
- robust z-score, replicate 3: -0.971
